# Library screening results

Data taken from ChEMBL document CHEMBL3988442, “University of Dundee, Small-Polar-MMV Screening Library” (2021).

Mtb growth Cornell: 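Whole-cell assay for inhibitors of Mycobacterium tuberculosis growth, labelled Cornell in the record; the read-out is not stated. The concentration is filed as 10 mM, unlikely as a test dose, so the dose is not known. The record gives no direction; compounds strong in two other growth screens of this library score well above the rest, so higher reads as stronger inhibition. Size under these conditions: about 53,000 compounds, about 900 of them at 50% or above in at least one test.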
Mtb heat-shock: 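Assay on Mycobacterium tuberculosis, filed only as a heat shock assay from Cornell; the read-out is not stated. The concentration is filed as 10 mM, unlikely as a test dose, so the dose is not known. Higher reads as stronger inhibition (inferred: compounds with an IC50 in retests scored well above the rest). About 69,000 compounds were tested under these conditions; 1.4% (about 930) showed 50% or more at least once.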

Values are the deposited “Percent Effect”, in %.
The record does not define 0% and 100%; most values in the screen are far below 50% and negative numbers occur (in some assays of this library far below -100).
Compounds were drawn at random from those tested, without regard to their results.
A dash means the value is not listed here; it may have been measured.

| # | structure | Mtb growth Cornell | Mtb heat-shock |
|---|---|---|---|
| 1 | `CC(Cn1cccn1)NC(=O)N(C)Cc1cnn(C)c1` (centres unmarked) | -2.625 | 8.207 |
| 2 | `O=C(O)CC(O)(CC(=O)O)C(=O)O.[H][C@@]12CC[C@@](O)(c3ccccn3)[C@]1([H])CN(Cc1cccc(Cl)c1Cl)C2` | 3.215 | 14.33 |
| 3 | `CN(C)C(=O)C1OC2(CCN(C(=O)c3ccoc3)CC2)c2ccccc21` (centres unmarked) | 6.574 | 3.424 |
| 4 | `Cc1ccc(C(=O)NC(C)Cn2cccn2)c(=O)[nH]1` (centres unmarked) | - | -32.66 |
| 5 | `O=C(CCN1CCOC(C(F)(F)F)C1)NCc1ccccc1Cl` (centres unmarked) | -22.67 | -16.24 |
| 6 | `Cc1ccccc1N1CC(C)N(C(=O)CCn2cccn2)CC1=O` (centres unmarked) | -2.778 | -12.3 |
| 7 | `O=C(O)C(F)(F)F.O=C(O)C(F)(F)F.[H][C@]12CCCN(Cc3ccncc3)[C@@]1([H])CN(C(=O)c1ccco1)C2` | -28.27 | -15.72 |
| 8 | `Cc1ccc(C(=O)N2CCC3(CCC(=O)N(CC(C)O)C3)CC2)c(O)c1` (centres unmarked) | -5.634 | -8.077 |
| 9 | `CN1CCOC(C(=O)N2CCCC(C)(C)CC2)C1` (centres unmarked) | - | -26.18 |
| 10 | `CCOCCN1CCN(c2ccc(C#N)cn2)CC1` | -28.52 | -12.19 |
| 11 | `O=C(COCc1ccccc1)N1CCC(OCc2cccnc2)CC1` | 18.63 | -31.48 |
| 12 | `Cc1nccn1-c1ccccc1CNC(=O)c1cn(CCN)nn1` | 9.939 | -2.064 |
| 13 | `CCN(CC)C(=O)C1CCC(=O)N(CCc2cccc(F)c2)C1` (centres unmarked) | -29.13 | -9.12 |
| 14 | `CC(C)c1cc(C(=O)N(c2ccc(F)cn2)C2CCOCC2)on1` | 8.6 | 9.202 |
| 15 | `COc1cccc(C(O)CN2CCN(c3cccc(C)c3)CC2)c1` (centres unmarked) | 15.38 | -2.858 |
| 16 | `CC(=O)N[C@H]1CCN(c2nc(C)nc3c2c(C)nn3C)C1` | 21.31 | 10.11 |
| 17 | `CN(C)C(=O)N1CCCn2nc(CNC(=O)CCc3cccs3)cc2C1` | -27.09 | -14.86 |
| 18 | `Cc1cc(CN2CCN(c3ccc4nncn4n3)C(C)C2)no1` (centres unmarked) | -29.2 | 3.91 |
| 19 | `N#CC1=C(N)Nn2c(nnc2-c2ccccc2F)S1` | 32.24 | -8.176 |
| 20 | `CN1CCC(n2nc(CC3CC3)nc2-c2ccc(F)cc2Cl)CC1` | - | -16.05 |
| 21 | `O=C(O)C(F)(F)F.O=C(O)C(F)(F)F.[H][C@@]12CCN(c3ncccn3)[C@]1([H])CC[C@H](C(=O)NCc1cccnc1)O2` | 1.751 | 0.1756 |
| 22 | `O=C(c1ccoc1)N1Cc2cnn(CC3CC3)c2C(COCC2CC2)C1` (centres unmarked) | -25.5 | 9.89 |
| 23 | `CN(C)CC1CN(Cc2coc(-c3ccccc3Cl)n2)CCO1` (centres unmarked) | - | -3.611 |
| 24 | `C[C@@H]1CN(C(=O)c2cc(Cn3cnc4ccccc43)on2)C[C@H](C)O1` | - | -23.95 |

The first 2 entries again:

structure	Mtb growth Cornell	Mtb heat-shock
CC(Cn1cccn1)NC(=O)N(C)Cc1cnn(C)c1 (centres unmarked)	-2.625	8.207
O=C(O)CC(O)(CC(=O)O)C(=O)O.[H][C@@]12CC[C@@](O)(c3ccccn3)[C@]1([H])CN(Cc1cccc(Cl)c1Cl)C2	3.215	14.33